Results deposited as PubChem BioAssay AID1224830 (NIAID, 2016).
Screen: 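Genes whose knock-down alters the TNF-alpha reporter response to LPS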 (primary screen). Cell system: human THP-1 monocytic leukaemia cells, TNF dual-luciferase reporter clone, PMA-differentiated to macrophage-like cells. Reagent: siRNA pool against human genes, 50 nM. Timing: LPS for 4 h, given about 3 days after siRNA transfection. Conditions: bacterial LPS (TLR4 ligand), 10 ng/ml. Detection: 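Ratio of firefly to renilla light, scaled to the plate median and expressed as a robust z-score per replicate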. Direction: TNF reporter robust z-score: higher = stronger TNF reporter response to LPS. Hit rule: 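a well is active when its z-score exceeds 2.8 or falls below -1.5; control wells carry no call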.
Shown is an unselected part of about 18,000 reagents tested. About 2,900 of them (16%) count as active. 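Calls are made per well; low scores hint the gene aids the LPS response, high scores that it dampens it.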 Repeated entries: four replicate wells of each siRNA pool. No sequences are given here.

| gene | TNF reporter robust z-score | call |
| --- | --- | --- |
| KRT74 (keratin 74) | 1.66 | inactive |
| KRT74 (keratin 74) | 0.84 | inactive |
| KRT74 (keratin 74) | 1.35 | inactive |
| KRT74 (keratin 74) | 1.62 | inactive |
| CNIH2 (cornichon family AMPA receptor auxiliary protein 2) | -0.02 | inactive |
| CNIH2 (cornichon family AMPA receptor auxiliary protein 2) | -0.03 | inactive |
| CNIH2 (cornichon family AMPA receptor auxiliary protein 2) | -0.94 | inactive |
| CNIH2 (cornichon family AMPA receptor auxiliary protein 2) | -0.61 | inactive |
| PPBP (pro-platelet basic protein) | 0.31 | inactive |
| PPBP (pro-platelet basic protein) | 0.48 | inactive |
| PPBP (pro-platelet basic protein) | 0.86 | inactive |
| NKX2-5 (NK2 homeobox 5) | -0.72 | inactive |
| NKX2-5 (NK2 homeobox 5) | -0.23 | inactive |
| NKX2-5 (NK2 homeobox 5) | -0.54 | inactive |
| NKX2-5 (NK2 homeobox 5) | -0.12 | inactive |
| MYRFL (myelin regulatory factor like) | 0.07 | inactive |
| MYRFL (myelin regulatory factor like) | 0.92 | inactive |
| MYRFL (myelin regulatory factor like) | 0.29 | inactive |
| MYRFL (myelin regulatory factor like) | 0.87 | inactive |
| FOXN4 (forkhead box N4) | -0.96 | inactive |
| FOXN4 (forkhead box N4) | -0.68 | inactive |
| FOXN4 (forkhead box N4) | -0.29 | inactive |
| FOXN4 (forkhead box N4) | -0.61 | inactive |
| ARHGAP32 (Rho GTPase activating protein 32) | 0.36 | inactive |
| ARHGAP32 (Rho GTPase activating protein 32) | -1.08 | inactive |
| ARHGAP32 (Rho GTPase activating protein 32) | -1.34 | inactive |
| ARHGAP32 (Rho GTPase activating protein 32) | -1.45 | inactive |
| ADAMTS9 (ADAM metallopeptidase with thrombospondin type 1 motif 9) | 1.24 | inactive |
| ADAMTS9 (ADAM metallopeptidase with thrombospondin type 1 motif 9) | 0.13 | inactive |
| ADAMTS9 (ADAM metallopeptidase with thrombospondin type 1 motif 9) | 0.52 | inactive |
| ADAMTS9 (ADAM metallopeptidase with thrombospondin type 1 motif 9) | 2.12 | inactive |
| SREBF2 (sterol regulatory element binding transcription factor 2) | -0.46 | inactive |
| SREBF2 (sterol regulatory element binding transcription factor 2) | -1.08 | inactive |
| SREBF2 (sterol regulatory element binding transcription factor 2) | -0.18 | inactive |
| SREBF2 (sterol regulatory element binding transcription factor 2) | 0.04 | inactive |
| CASQ2 (calsequestrin 2) | 0.73 | inactive |
| CASQ2 (calsequestrin 2) | -0.12 | inactive |
| CASQ2 (calsequestrin 2) | 0.59 | inactive |
| CASQ2 (calsequestrin 2) | -0.16 | inactive |

A stretch from the list above, as a working copy:
| gene | TNF reporter robust z-score | call |
| --- | --- | --- |
| FOXN4 (forkhead box N4) | -0.29 | inactive |
| FOXN4 (forkhead box N4) | -0.61 | inactive |
| ARHGAP32 (Rho GTPase activating protein 32) | 0.36 | inactive |
| ARHGAP32 (Rho GTPase activating protein 32) | -1.08 | inactive |
| ARHGAP32 (Rho GTPase activating protein 32) | -1.34 | inactive |
| ARHGAP32 (Rho GTPase activating protein 32) | -1.45 | inactive |
| ADAMTS9 (ADAM metallopeptidase with thrombospondin type 1 motif 9) | 1.24 | inactive |
| ADAMTS9 (ADAM metallopeptidase with thrombospondin type 1 motif 9) | 0.13 | inactive |
| ADAMTS9 (ADAM metallopeptidase with thrombospondin type 1 motif 9) | 0.52 | inactive |
| ADAMTS9 (ADAM metallopeptidase with thrombospondin type 1 motif 9) | 2.12 | inactive |
| SREBF2 (sterol regulatory element binding transcription factor 2) | -0.46 | inactive |
| SREBF2 (sterol regulatory element binding transcription factor 2) | -1.08 | inactive |
| SREBF2 (sterol regulatory element binding transcription factor 2) | -0.18 | inactive |
| SREBF2 (sterol regulatory element binding transcription factor 2) | 0.04 | inactive |
| CASQ2 (calsequestrin 2) | 0.73 | inactive |
| CASQ2 (calsequestrin 2) | -0.12 | inactive |

More results follow:
| gene | TNF reporter robust z-score | call |
| --- | --- | --- |
| RSPH10B (radial spoke head 10 homolog B) | -0.67 | inactive |
| RSPH10B (radial spoke head 10 homolog B) | -0.49 | inactive |
| RSPH10B (radial spoke head 10 homolog B) | -0.81 | inactive |
| RSPH10B (radial spoke head 10 homolog B) | -0.21 | inactive |
| ZSWIM9 (zinc finger SWIM-type containing 9) | 0 | inactive |
| ZSWIM9 (zinc finger SWIM-type containing 9) | 0.73 | inactive |
| ZSWIM9 (zinc finger SWIM-type containing 9) | 0.53 | inactive |
| ZSWIM9 (zinc finger SWIM-type containing 9) | 2.24 | inactive |
| PTN (pleiotrophin) | -0.13 | inactive |
| PTN (pleiotrophin) | 1.22 | inactive |
| PTN (pleiotrophin) | 0.45 | inactive |
| PTN (pleiotrophin) | 1.19 | inactive |
| CD69 (CD69 molecule) | 1.71 | inactive |
| CD69 (CD69 molecule) | 1.55 | inactive |
| CD69 (CD69 molecule) | 0.57 | inactive |
| CD69 (CD69 molecule) | 2.19 | inactive |
| NRDC (nardilysin convertase) | -0.77 | inactive |
| NRDC (nardilysin convertase) | -0.46 | inactive |
| NRDC (nardilysin convertase) | -0.68 | inactive |
| NRDC (nardilysin convertase) | -1.41 | inactive |
| NPM3 (nucleophosmin/nucleoplasmin 3) | 1.11 | inactive |
| NPM3 (nucleophosmin/nucleoplasmin 3) | 1.33 | inactive |
| NPM3 (nucleophosmin/nucleoplasmin 3) | 0.89 | inactive |
| NPM3 (nucleophosmin/nucleoplasmin 3) | -0.16 | inactive |
| RIT1 (Ras like without CAAX 1) | 0.01 | inactive |
| RIT1 (Ras like without CAAX 1) | 1.55 | inactive |
| RIT1 (Ras like without CAAX 1) | 0.57 | inactive |
| RIT1 (Ras like without CAAX 1) | 0.89 | inactive |
| SFT2D1 (SFT2 domain containing 1) | 1.73 | inactive |
| SFT2D1 (SFT2 domain containing 1) | 0.01 | inactive |
| SFT2D1 (SFT2 domain containing 1) | 0.81 | inactive |
| SFT2D1 (SFT2 domain containing 1) | -0.08 | inactive |
| PIK3AP1 (phosphoinositide-3-kinase adaptor protein 1) | 0.62 | inactive |
| PIK3AP1 (phosphoinositide-3-kinase adaptor protein 1) | 1.48 | inactive |
| PIK3AP1 (phosphoinositide-3-kinase adaptor protein 1) | 0.51 | inactive |
| PIK3AP1 (phosphoinositide-3-kinase adaptor protein 1) | 1.54 | inactive |
| SLC16A7 | 0.8 | inactive |
| SLC16A7 | 1.53 | inactive |
| SLC16A7 | 0.88 | inactive |
| SLC16A7 | 1.11 | inactive |
| SCNN1D (sodium channel epithelial 1 subunit delta) | -0.66 | inactive |
| SCNN1D (sodium channel epithelial 1 subunit delta) | 0.54 | inactive |
| SCNN1D (sodium channel epithelial 1 subunit delta) | 0.95 | inactive |
| SCNN1D (sodium channel epithelial 1 subunit delta) | -0.99 | inactive |
| CSF2RA (colony stimulating factor 2 receptor subunit alpha) | 0.12 | inactive |
| CSF2RA (colony stimulating factor 2 receptor subunit alpha) | 0.8 | inactive |
| CSF2RA (colony stimulating factor 2 receptor subunit alpha) | 0.19 | inactive |
| CSF2RA (colony stimulating factor 2 receptor subunit alpha) | 0.22 | inactive |
| SLC8B1 | -0.94 | inactive |
| SLC8B1 | -0.7 | inactive |
| SLC8B1 | -1.03 | inactive |
| SLC8B1 | -0.81 | inactive |
| SYCE1 (synaptonemal complex central element protein 1) | -0.54 | inactive |
| SYCE1 (synaptonemal complex central element protein 1) | -1.39 | inactive |
| SYCE1 (synaptonemal complex central element protein 1) | -1.05 | inactive |
| SYCE1 (synaptonemal complex central element protein 1) | -0.82 | inactive |
| MRGPRX1 (MAS related GPR family member X1) | 2.52 | inactive |
| MRGPRX1 (MAS related GPR family member X1) | 2.7 | inactive |
| MRGPRX1 (MAS related GPR family member X1) | 0.4 | inactive |
| MRGPRX1 (MAS related GPR family member X1) | 1.4 | inactive |
| ETF1 (eukaryotic translation termination factor 1) | -0.05 | inactive |
| ETF1 (eukaryotic translation termination factor 1) | 0.16 | inactive |
| ETF1 (eukaryotic translation termination factor 1) | -0.07 | inactive |
| ETF1 (eukaryotic translation termination factor 1) | -0.37 | inactive |
| KTI12 (KTI12 chromatin associated homolog) | -0.61 | inactive |
| KTI12 (KTI12 chromatin associated homolog) | 0.44 | inactive |
| KTI12 (KTI12 chromatin associated homolog) | -1.18 | inactive |
| KTI12 (KTI12 chromatin associated homolog) | -0.6 | inactive |
| DOK5 (docking protein 5) | 1.53 | inactive |
| DOK5 (docking protein 5) | 4.81 | active |
| DOK5 (docking protein 5) | 0.65 | inactive |
| DOK5 (docking protein 5) | 2.32 | inactive |
